These results are taken from the supplement of paper PMC10849652.

Sequences of proteins named here, by UniProt entry; tags and fusion partners are left off. A change or cut given only in a name is not applied to a line headed by its entry.
UniProt Q8WV74: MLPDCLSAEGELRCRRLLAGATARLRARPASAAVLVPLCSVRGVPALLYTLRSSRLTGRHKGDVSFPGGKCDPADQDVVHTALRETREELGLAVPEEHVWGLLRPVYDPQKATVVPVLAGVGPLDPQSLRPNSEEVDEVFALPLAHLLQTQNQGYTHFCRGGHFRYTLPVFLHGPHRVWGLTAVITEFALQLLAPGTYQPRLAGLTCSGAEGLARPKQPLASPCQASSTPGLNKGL
UniProt P0C024: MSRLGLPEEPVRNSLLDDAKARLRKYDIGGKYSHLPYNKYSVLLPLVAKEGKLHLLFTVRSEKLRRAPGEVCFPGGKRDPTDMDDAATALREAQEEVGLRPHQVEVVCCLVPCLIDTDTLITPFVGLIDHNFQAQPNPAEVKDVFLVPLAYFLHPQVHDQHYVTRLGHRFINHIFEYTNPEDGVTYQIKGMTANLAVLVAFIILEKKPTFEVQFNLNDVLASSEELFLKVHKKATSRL
UniProt Q9P0S3: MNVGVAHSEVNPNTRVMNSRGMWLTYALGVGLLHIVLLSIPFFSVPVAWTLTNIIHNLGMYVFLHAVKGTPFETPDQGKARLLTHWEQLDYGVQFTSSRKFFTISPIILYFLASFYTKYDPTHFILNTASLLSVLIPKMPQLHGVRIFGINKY
UniProt Q13416: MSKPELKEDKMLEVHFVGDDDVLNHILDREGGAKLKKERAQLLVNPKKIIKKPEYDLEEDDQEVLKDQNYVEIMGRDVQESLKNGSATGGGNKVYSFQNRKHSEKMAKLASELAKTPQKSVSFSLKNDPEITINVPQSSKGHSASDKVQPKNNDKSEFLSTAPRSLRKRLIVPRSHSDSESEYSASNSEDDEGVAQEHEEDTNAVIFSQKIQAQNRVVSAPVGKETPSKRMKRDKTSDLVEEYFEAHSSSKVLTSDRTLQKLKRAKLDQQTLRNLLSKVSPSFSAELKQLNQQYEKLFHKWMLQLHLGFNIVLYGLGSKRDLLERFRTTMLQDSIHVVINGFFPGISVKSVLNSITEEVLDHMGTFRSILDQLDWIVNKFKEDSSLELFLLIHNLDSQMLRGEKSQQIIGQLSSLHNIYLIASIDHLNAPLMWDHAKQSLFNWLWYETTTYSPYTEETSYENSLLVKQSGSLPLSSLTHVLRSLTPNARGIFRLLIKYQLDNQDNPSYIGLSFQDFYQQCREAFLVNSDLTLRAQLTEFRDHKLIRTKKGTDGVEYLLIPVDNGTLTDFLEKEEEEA
UniProt Q86UD1: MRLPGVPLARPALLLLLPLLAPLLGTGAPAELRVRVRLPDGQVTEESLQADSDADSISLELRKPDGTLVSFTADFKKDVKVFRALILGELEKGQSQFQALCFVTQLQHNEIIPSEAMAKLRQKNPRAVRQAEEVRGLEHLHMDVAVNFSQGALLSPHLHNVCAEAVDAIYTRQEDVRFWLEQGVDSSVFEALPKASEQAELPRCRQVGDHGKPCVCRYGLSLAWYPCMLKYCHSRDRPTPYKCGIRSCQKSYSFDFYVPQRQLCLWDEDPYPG
UniProt O15460: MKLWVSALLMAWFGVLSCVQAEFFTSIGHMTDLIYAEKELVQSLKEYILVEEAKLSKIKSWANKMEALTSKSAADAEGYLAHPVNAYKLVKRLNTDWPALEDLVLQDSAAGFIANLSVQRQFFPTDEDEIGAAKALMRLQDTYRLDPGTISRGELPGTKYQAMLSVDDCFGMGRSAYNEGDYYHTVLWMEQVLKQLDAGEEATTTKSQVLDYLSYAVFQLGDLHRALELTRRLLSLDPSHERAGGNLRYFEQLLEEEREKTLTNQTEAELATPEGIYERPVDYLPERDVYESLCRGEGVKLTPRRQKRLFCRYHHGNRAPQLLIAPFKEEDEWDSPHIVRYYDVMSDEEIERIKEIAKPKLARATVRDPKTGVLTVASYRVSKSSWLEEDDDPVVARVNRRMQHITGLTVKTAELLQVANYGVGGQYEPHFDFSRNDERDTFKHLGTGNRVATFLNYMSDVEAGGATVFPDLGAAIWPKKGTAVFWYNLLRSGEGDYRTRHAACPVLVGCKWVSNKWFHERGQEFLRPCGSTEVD
UniProt Q6N063: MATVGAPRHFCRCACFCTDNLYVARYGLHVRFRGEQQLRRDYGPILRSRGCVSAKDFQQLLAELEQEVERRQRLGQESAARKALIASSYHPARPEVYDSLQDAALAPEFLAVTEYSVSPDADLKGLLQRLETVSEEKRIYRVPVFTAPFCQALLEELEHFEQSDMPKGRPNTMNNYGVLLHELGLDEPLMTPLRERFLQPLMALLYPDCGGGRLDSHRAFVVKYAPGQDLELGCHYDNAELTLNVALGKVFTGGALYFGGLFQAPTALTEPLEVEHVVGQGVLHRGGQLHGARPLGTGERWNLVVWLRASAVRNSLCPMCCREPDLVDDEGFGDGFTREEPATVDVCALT
UniProt P47900: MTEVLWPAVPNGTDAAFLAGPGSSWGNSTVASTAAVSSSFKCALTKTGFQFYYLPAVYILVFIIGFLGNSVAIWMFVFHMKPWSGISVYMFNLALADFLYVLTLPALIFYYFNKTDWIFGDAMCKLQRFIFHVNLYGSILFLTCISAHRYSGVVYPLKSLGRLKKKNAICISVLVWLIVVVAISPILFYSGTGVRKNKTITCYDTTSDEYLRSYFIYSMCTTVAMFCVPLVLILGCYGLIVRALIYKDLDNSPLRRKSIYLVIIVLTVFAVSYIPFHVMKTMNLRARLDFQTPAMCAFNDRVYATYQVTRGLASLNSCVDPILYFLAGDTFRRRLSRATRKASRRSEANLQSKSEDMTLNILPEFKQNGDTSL
UniProt Q9H6K4: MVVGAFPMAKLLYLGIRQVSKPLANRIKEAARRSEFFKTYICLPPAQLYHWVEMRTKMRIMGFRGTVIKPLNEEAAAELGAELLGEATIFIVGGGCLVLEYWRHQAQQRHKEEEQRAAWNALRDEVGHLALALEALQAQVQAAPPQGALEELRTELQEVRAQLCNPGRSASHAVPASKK
UniProt Q8NE18: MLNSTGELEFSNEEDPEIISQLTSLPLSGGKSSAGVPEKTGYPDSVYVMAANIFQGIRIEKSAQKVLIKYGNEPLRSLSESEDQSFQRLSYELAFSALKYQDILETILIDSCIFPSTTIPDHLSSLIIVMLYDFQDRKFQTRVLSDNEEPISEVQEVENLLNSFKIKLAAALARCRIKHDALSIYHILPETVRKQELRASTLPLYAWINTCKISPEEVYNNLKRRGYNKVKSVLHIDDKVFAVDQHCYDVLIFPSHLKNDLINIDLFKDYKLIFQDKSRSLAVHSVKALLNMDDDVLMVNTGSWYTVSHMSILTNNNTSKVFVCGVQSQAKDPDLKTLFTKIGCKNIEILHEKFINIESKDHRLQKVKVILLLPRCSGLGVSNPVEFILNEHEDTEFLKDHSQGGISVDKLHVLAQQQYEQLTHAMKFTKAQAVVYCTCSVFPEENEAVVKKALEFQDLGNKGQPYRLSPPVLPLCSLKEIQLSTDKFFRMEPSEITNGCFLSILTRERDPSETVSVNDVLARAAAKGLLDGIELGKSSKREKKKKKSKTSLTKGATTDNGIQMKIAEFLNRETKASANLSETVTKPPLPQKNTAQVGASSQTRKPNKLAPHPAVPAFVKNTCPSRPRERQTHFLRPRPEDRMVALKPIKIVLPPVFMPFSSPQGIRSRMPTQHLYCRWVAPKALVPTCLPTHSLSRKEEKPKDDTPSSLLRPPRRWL
UniProt Q8WZ82: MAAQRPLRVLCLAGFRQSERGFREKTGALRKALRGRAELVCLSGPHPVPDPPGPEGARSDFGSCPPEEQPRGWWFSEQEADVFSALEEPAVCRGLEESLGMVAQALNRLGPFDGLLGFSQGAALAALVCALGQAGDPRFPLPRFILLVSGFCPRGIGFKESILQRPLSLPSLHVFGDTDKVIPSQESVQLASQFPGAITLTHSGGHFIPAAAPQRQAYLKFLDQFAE
UniProt Q8N573: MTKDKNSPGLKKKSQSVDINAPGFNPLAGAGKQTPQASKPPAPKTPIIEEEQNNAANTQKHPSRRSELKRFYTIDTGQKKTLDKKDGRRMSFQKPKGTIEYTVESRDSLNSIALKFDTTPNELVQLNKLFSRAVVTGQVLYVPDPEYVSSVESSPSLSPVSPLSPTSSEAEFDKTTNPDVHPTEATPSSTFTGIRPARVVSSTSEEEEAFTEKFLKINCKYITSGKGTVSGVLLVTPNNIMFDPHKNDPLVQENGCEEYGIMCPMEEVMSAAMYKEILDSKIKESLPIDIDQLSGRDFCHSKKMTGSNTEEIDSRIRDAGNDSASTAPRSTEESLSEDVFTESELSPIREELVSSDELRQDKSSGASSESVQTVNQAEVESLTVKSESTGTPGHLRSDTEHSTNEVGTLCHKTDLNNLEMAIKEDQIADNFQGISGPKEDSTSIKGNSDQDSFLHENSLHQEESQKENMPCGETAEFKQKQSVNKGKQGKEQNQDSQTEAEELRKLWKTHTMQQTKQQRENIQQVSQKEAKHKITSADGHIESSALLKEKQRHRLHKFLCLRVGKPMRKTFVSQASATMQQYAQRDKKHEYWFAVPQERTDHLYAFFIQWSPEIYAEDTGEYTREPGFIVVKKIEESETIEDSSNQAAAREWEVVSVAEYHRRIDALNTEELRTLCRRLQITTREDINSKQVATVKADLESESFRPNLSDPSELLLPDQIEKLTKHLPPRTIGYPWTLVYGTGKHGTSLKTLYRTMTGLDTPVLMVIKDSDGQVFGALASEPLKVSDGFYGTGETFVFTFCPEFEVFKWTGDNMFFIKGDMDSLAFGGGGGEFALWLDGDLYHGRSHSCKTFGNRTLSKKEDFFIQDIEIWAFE
UniProt Q9BRQ3: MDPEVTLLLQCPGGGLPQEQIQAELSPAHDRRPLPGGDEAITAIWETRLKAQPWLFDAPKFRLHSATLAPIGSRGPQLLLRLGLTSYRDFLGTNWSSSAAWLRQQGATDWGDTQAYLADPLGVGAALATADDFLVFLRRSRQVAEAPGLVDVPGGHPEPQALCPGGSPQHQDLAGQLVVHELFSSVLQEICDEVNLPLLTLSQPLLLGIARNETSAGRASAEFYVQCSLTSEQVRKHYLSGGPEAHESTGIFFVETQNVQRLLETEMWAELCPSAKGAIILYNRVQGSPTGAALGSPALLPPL
UniProt Q9BZD4: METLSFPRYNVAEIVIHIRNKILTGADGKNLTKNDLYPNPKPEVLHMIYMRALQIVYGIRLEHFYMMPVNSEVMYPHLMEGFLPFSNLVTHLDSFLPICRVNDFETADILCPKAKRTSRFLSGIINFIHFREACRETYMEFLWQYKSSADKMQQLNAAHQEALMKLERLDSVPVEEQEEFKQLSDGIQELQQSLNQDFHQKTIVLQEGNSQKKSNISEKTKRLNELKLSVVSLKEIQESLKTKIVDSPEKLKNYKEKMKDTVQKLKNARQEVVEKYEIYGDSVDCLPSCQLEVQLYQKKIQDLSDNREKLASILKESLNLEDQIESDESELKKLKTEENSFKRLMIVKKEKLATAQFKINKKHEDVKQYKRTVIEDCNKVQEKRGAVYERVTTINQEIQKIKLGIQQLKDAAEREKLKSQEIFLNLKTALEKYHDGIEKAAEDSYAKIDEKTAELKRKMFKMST
UniProt Q99935: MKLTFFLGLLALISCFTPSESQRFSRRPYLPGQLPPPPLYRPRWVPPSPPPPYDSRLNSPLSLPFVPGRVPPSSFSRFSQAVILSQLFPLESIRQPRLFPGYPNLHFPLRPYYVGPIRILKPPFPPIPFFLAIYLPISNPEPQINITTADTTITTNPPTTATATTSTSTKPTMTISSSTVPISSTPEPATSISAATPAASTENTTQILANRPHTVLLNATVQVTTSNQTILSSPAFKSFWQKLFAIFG
UniProt Q5BJF6: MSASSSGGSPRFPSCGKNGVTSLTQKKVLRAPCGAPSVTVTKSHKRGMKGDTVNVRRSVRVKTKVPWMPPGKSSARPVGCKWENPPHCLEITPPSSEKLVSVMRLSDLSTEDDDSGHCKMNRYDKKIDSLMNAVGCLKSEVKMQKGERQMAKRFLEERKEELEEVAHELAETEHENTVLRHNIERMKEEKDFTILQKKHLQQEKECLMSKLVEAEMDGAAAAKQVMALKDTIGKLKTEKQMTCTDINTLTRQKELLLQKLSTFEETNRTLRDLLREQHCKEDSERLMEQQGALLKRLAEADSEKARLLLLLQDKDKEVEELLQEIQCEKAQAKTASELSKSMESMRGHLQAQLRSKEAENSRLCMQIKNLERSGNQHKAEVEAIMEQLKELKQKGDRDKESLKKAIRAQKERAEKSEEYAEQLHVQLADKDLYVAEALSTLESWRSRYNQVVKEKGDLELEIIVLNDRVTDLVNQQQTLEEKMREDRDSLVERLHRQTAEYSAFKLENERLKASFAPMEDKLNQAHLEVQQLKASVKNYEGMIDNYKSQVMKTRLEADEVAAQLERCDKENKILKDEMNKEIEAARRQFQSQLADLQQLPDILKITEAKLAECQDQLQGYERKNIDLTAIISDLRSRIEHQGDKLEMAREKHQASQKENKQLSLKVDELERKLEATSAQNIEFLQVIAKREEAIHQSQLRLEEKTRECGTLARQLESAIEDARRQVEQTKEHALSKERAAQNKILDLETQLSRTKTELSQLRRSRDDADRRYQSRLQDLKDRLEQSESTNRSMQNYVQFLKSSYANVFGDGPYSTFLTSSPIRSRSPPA

The other results are listed elsewhere or left out.

Compound in the first assay: NC(=O)Nc1cc(-c2cccc(F)c2)sc1C(=O)N[C@H]1CCCNC1
Description: log2 fold change, soluble protein after heating vs DMSO (PISA); higher = thermal stabilisation; K562 cells, 10 uM, 30 min; active = over 0.2 and 3.5 SD of the protein, either way, in both replicates (recomputed). Put shortly: (§1)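 Soluble protein was quantified by TMTpro 16plex LC-MS/MS after channel sums were equalised. It was obtained as the supernatant after 21,000xg for 90 min from pooled aliquots of K562 cells (2×10^6 cells/mL, 10 μM compound, 30 min) heated for 3 min across 48°C-58°C and extracted in PBS with 0.5% NP-40 at 4°C. Thermal stability values are relative to control samples and come from duplicates. They are given as log2 fold changes.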
Regarding NUDT8 (UniProt Q8WV74), the log2 fold change was inactive: 0.075.

As for P4HB (UniProt H7BZ94), the log2 fold change is inactive: -0.145.

As for NUDT7 (UniProt P0C024), the log2 fold change was inactive: 0.01.

Regarding OAS3 (UniProt Q9Y6K5), the log2 fold change was inactive: 0.033.

ORMDL1 (UniProt Q9P0S3): the log2 fold change was inactive: -0.091.

PABPC1 (UniProt H0YAR2): the log2 fold change is inactive: -0.07.

Consider ORC6 (UniProt Q9Y5N6), for which the log2 fold change is inactive: 0.06.

As to PABPC1 (UniProt E5RJM8), the log2 fold change is inactive: -0.152.

With ORC2 (UniProt Q13416), the log2 fold change is inactive: 0.007.

Regarding OAF (UniProt Q86UD1), the log2 fold change was inactive: -0.089.

Consider P4HA2 (UniProt O15460), for which the log2 fold change was inactive: -0.034.

With OBSCN (UniProt A6NGQ3), the log2 fold change was inactive: -0.118.

Compound in the next assay: NC(=O)c1cnc(N[C@@H]2CCCC[C@@H]2N)nc1Nc1cccc(-n2nccn2)c1
Described as above. The essentials: as §1
Take ORC3 (UniProt Q9UBD5): the log2 fold change was inactive: 0.067.

As to OGFOD2 (UniProt Q6N063), the log2 fold change was inactive: 0.005.

On to P2RY1 (UniProt P47900), for which the log2 fold change was inactive: 0.082.

For OPA3 isoform 2 (UniProt Q9H6K4), the log2 fold change is inactive: -0.013.

Regarding NSUN7 (UniProt Q8NE18), the log2 fold change was inactive: -0.293.

In the case of NXF1 (UniProt Q9UBU9), the log2 fold change was inactive: -0.041.

On to ODC1 (UniProt P11926), for which the log2 fold change was inactive: 0.012.

Regarding OVCA2 (UniProt Q8WZ82), the log2 fold change is inactive: -0.067.

Regarding OXR1 isoform 2 (UniProt Q8N573), the log2 fold change was inactive: 0.054.

As for NUDT22 (UniProt Q9BRQ3), the log2 fold change is inactive: -0.068.

For the target NUF2 (UniProt Q9BZD4), the log2 fold change is inactive: 0.043.

Regarding OBSCN (UniProt A6NGQ3), the log2 fold change was inactive: 0.065.

Compound in a further assay: NC1(c2ccc(-c3nc4ccn5c(=O)[nH]nc5c4cc3-c3ccccc3)cc2)CCC1
The description is as above. Put shortly:
as §1
For the target OSBPL2 (UniProt Q9H1P3), the log2 fold change is inactive: -0.443.

Regarding OGFOD2 (UniProt Q6N063), the log2 fold change is inactive: -0.151.

Regarding P2RY1 (UniProt P47900), the log2 fold change is inactive: 0.191.

Consider OPA3 isoform 2 (UniProt Q9H6K4), for which the log2 fold change is inactive: -0.065.

Take NSUN7 (UniProt Q8NE18): the log2 fold change was inactive: -0.056.

In the case of NUDT8 (UniProt Q8WV74), the log2 fold change was inactive: -0.033.

Consider NVL (UniProt O15381), for which the log2 fold change is inactive: 0.031.

In the case of OVCA2 (UniProt Q8WZ82), the log2 fold change was inactive: 0.03.

For OGFOD3 (UniProt Q6PK18), the log2 fold change was inactive: -0.099.

As for ORMDL1 (UniProt Q9P0S3), the log2 fold change is inactive: -0.065.

As for PABPC1 (UniProt H0YAR2), the log2 fold change was inactive: 0.157.

Take NUDT22 (UniProt Q9BRQ3): the log2 fold change was inactive: 0.054.

With P3H3 (UniProt Q8IVL6), the log2 fold change was inactive: -0.402.

Regarding ORAI1 (UniProt Q96D31), the log2 fold change is inactive: 0.101.

Take NUF2 (UniProt Q9BZD4): the log2 fold change was inactive: 0.199.

ORC2 (UniProt Q13416): the log2 fold change was inactive: -0.045.

Regarding OAF (UniProt Q86UD1), the log2 fold change is inactive: -0.188.

P4HA2 (UniProt O15460): the log2 fold change is inactive: -0.129.

In the case of OXLD1 (UniProt Q5BKU9), the log2 fold change is inactive: -0.081.

For NUDT6 (UniProt P53370), the log2 fold change was inactive: 0.149.

ODF2L isoform 4 (UniProt Q9ULJ1): the log2 fold change was inactive: 0.237.

For the target OPRPN (UniProt Q99935), the log2 fold change was inactive: -0.189.

Compound in a further assay: NCC(=O)Nc1ccc(-n2nc(C(F)(F)F)cc2-c2ccc3c(ccc4ccccc43)c2)cc1
The description is as above. The essentials: as §1
For OGFOD2 (UniProt Q6N063), the log2 fold change was inactive: -0.012.

OPA3 isoform 2 (UniProt Q9H6K4): the log2 fold change is inactive: -0.039.

On to NSUN7 (UniProt Q8NE18), for which the log2 fold change was inactive: -0.187.

Regarding NUDT8 (UniProt Q8WV74), the log2 fold change is inactive: 0.003.

As for OXR1 isoform 2 (UniProt Q8N573), the log2 fold change was inactive: -0.046.

For NUDT22 (UniProt Q9BRQ3), the log2 fold change is inactive: -0.07.

For the target ORAI1 (UniProt Q96D31), the log2 fold change was inactive: 0.202.

For NUF2 (UniProt Q9BZD4), the log2 fold change is inactive: 0.148.

As to P4HA2 (UniProt O15460), the log2 fold change is inactive: 0.063.

Consider NUDT6 (UniProt P53370), for which the log2 fold change is inactive: 0.298.

Consider ODF2L isoform 4 (UniProt Q9ULJ1), for which the log2 fold change is inactive: -0.065.

Compound in a further assay: Nc1ccccc1NC(=O)c1ccc(CNC(=O)OCc2cccnc2)cc1 [entinostat]
Described as above. Put shortly:
as §1
For NUDT8 (UniProt Q8WV74), the log2 fold change was inactive: -0.236.

With P4HB (UniProt H7BZ94), the log2 fold change is inactive: 0.177.

NUDT7 (UniProt P0C024): the log2 fold change was inactive: -0.05.

As to OAS3 (UniProt Q9Y6K5), the log2 fold change was inactive: 0.029.

Take ORMDL1 (UniProt Q9P0S3): the log2 fold change was inactive: 0.039.

With PABPC1 (UniProt H0YAR2), the log2 fold change was inactive: 0.051.

On to ORC6 (UniProt Q9Y5N6), for which the log2 fold change was inactive: 0.05.

Take PABPC1 (UniProt E5RJM8): the log2 fold change was inactive: -0.058.

With ORC2 (UniProt Q13416), the log2 fold change was inactive: 0.078.

With OAF (UniProt Q86UD1), the log2 fold change was inactive: -0.029.

As for P4HA2 (UniProt O15460), the log2 fold change was inactive: -0.104.

As for OBSCN (UniProt A6NGQ3), the log2 fold change is inactive: -0.152.

Compound in the next assay: O=C(CCCCCCC(=O)Nc1ccccc1)NO [vorinostat]
The assay is described as above. Put shortly: as §1
Regarding OGFOD2 (UniProt Q6N063), the log2 fold change was inactive: -0.313.

As for P2RY1 (UniProt P47900), the log2 fold change was inactive: -0.044.

Consider ODF2 (UniProt Q5BJF6), for which the log2 fold change was inactive: 0.28.

As for NSUN7 (UniProt Q8NE18), the log2 fold change is inactive: -0.159.

Take NXF1 (UniProt Q9UBU9): the log2 fold change is inactive: 0.054.

On to NVL (UniProt O15381), for which the log2 fold change is inactive: -0.001.

As to OVCA2 (UniProt Q8WZ82), the log2 fold change was inactive: 0.08.

For the target NUDT7 (UniProt P0C024), the log2 fold change was inactive: 0.286.

As for OXR1 isoform 2 (UniProt Q8N573), the log2 fold change was inactive: 0.01.

As for NUF2 (UniProt Q9BZD4), the log2 fold change was inactive: 0.168.

Turning to ORC2 (UniProt Q13416), the log2 fold change is inactive: 0.204.

On to P4HA2 (UniProt O15460), for which the log2 fold change was inactive: -0.047.
